# Reference: PubChem BioAssay AID504467 (National Center for Advancing Translational Sciences (NCATS), 2011)
# Out of some 330,000 compounds screened, about 7,700 (2.3%) were called active. The inconclusive results got no clear call from the source; some entries with a clear call stand among them for comparison. Calls come from the whole dose curve; as a rule, active = well fitted inhibition curve with a large enough effect; inconclusive = small, poorly fitted or top-dose-only effect, or effect the other way; inactive = flat fitted curve, though single readings scatter. A potency beside an inconclusive call is a rough fit, not a confirmed value.
# Experiment: qHTS screen for small molecules that inhibit ELG1-dependent DNA repair in human embryonic kidney (HEK293T) cells expressing luciferase-tagged ELG1; note: nearly all actives have a fitted effect of over 55% in size
# Conditions: HEK293T ELG1-luciferase reporter, luminescence, 16 h, DNA damage induced by 5-fluorouridine; activity change, negative = inhibition: at 46.1 µM (top of the series)
# In short: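 Quantitative HTS, concentration-response format. 2,000 cells/well co-treated with 5-fluorouridine and compound, 16 hr in 5% CO2 at 37 °C; ONE-Glo luminescence read after 30 min.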
# % is set by controls: 0 for no effect and ±100 for the full control effect; potency is the fitted concentration of half-maximal effect.
Structure (SMILES),"activity change, negative = inhibition",Potency
Cc1onc(-c2ccccc2)c1C(=O)c1c[nH]c(C(=O)NCCCN2CCOCC2)c1,inactive: -0.977%,–
O=C(C[n+]1cc(Br)cc(Br)c1)c1ccccc1,inactive: 22.3%,–
Cc1cccc(NC(=O)NCc2cccnc2)c1C,inactive: -0.853%,–
Cc1cc(C)c(S(=O)(=O)N2CCOC2CNC(=O)C(=O)NCCCn2ccnc2)c(C)c1 (centres undefined),–,"inconclusive: 29.1 µM [activator, single point]"
Cc1cccc(C)c1OCc1cc(C(=O)N(C)Cc2cc(C3CC3)n[nH]2)no1,–,"inconclusive: 23.1 µM [inhibitor, single point]"
O=C(c1ccco1)N1CCN(c2ccnc3cc(Cl)ccc23)CC1,–,"inconclusive: 18.3 µM [inhibitor, single point]"
CCN(C[C@H]1N[C@@](Cc2ccccc2)(C(=O)OC)[C@H]2C(=O)N(C)C(=O)[C@@H]12)S(=O)(=O)c1ccc(OC)cc1,–,"inconclusive: 23.1 µM [inhibitor, partial curve]"
c1ccc(-c2noc(C34CC5CC(CC(C5)C3)C4)n2)nc1,–,"inconclusive: 20.6 µM [activator, partial curve]"
O=C1C=CC(=O)N1c1ccc(OC(F)F)cc1,–,active: 20.6 µM
O=C(NN=C1c2ccccc2-c2ccccc21)c1cccc(Br)c1,–,"inconclusive: 18.4 µM [activator, partial curve, poor fit]"
COc1cccc(C(=O)NCCNC(=O)c2cnccn2)c1,inactive: -2.93%,–
COC(=O)[C@H](C)NC(=O)Nc1cccc(Br)c1,–,"inconclusive: 5.17 µM [inhibitor, single point]"
COc1ccc(C2=NC(c3ccccc3)CO2)cc1 (centres undefined),–,"inconclusive: 9.2 µM [activator, partial curve]"
Cc1nn(C2CCS(=O)(=O)C2)c(Cl)c1/C=C/C(=O)OCC(=O)c1c[nH]c2ccccc12 (centres undefined),–,"inconclusive: 18.4 µM [inhibitor, partial curve]"
CC(=O)Nc1cccc(NC(=O)Nc2ccc(C)c(Cl)c2)c1,–,"inconclusive: 29.1 µM [activator, single point]"
CCN(CC(=O)NCc1ccc(Cl)cc1)C(=O)COc1cccc(Cl)c1,inactive: -0.901%,–
COc1cc(CN2CCC(n3nccc3NC(=O)CCCc3ccccc3)CC2)ccc1F,–,"inconclusive: 25.9 µM [inhibitor, single point]"
CC(C)(C)c1cc(/C=C2\NC(=O)NC2=O)cc(C(C)(C)C)c1O,–,"inconclusive: 23.1 µM [inhibitor, single point]"
O=C(Nc1ccncc1)C1COc2ccccc2O1 (centres undefined),inactive: -2.9%,–
O=C(CN1C(=O)COCC1=O)N1CCOCC1,–,"inconclusive: 23.1 µM [activator, single point]"
O=C(NCc1cccs1)C(=O)NCC(c1ccco1)N1CCN(c2ccccc2)CC1 (centres undefined),–,"inconclusive: 18.3 µM [inhibitor, single point]"
CCCOc1ccc(CC(CC(=O)O)(C(=O)O)C(=O)O)cc1,–,"inconclusive: 5.8 µM [inhibitor, single point]"
COc1ccc(NC(=O)CCNS(=O)(=O)c2cccc3nonc23)c(OC)c1,inactive: 0.564%,–

Structure (SMILES),"activity change, negative = inhibition",Potency
C/C(=N\NC(=O)c1nnn(-c2nonc2N)c1-c1ccc2c(c1)OCO2)c1cccs1,inactive: 1.95%,–
CCC(=O)NC(=S)Nc1ccc(S(=O)(=O)NC2CCCCC2)cc1,inactive: 5.02%,–
CCCOc1ccc(/C(O)=C2/C(=O)C(=O)N(CCN(C)C)C2c2ccco2)cc1 (centres undefined),–,"inconclusive: 31.6 µM [activator, single point]"
Cc1cc(C)cc(NC(=O)CN2CCc3cc4c(cc3C2C)OCCCO4)c1 (centres undefined),–,"inconclusive: 29.1 µM [inhibitor, single point]"
CCCCNC(=S)N(CCCN(C)C)Cc1cc2cc3c(cc2[nH]c1=O)OCO3,inactive: -23.6%,–
COc1ccc(C(CC(=O)N2CCCC(C)C2)c2c(OC)cc(OC)c3c(-c4ccccc4)cc(=O)oc23)cc1 (centres undefined),–,"inconclusive: 23.1 µM [inhibitor, partial curve]"
Cc1ccc2nc(/C(C#N)=C/c3ccccc3C(=O)O)[nH]c2c1,inactive: -2.89%,–
O=[N+]([O-])c1cccc(NC(=S)N2CCCC2)c1,inactive: 12.3%,–
C=CCN(CC=C)C(=O)C1CCN(S(=O)(=O)c2ccc(N3CCCC3=O)cc2)CC1,inactive: -1.99%,–
CCCCN(C)CCCNC(=O)CN1N=C(c2ccc(Cl)cc2)CCC1=O,–,"inconclusive: 11.6 µM [activator, partial curve, poor fit]"
O=C(NC1CCCCC1)N(CCN1CCOCC1)Cc1cc2cc3c(cc2[nH]c1=O)OCCO3,–,"inconclusive: 14.6 µM [inhibitor, partial curve, poor fit]"
O=C(Nc1nc2c(ccc3ccccc32)s1)c1ccco1,–,"inconclusive: 4.47 µM [activator, full curve, poor fit]"
Clc1ccc(-c2nnc(Sc3nc4ccccc4o3)c3ccccc23)cc1,–,"inconclusive: 23.1 µM [activator, partial curve]"
COC(=O)CNC(=O)c1cc(-c2ccncc2)nc2ccc(C)cc12,inactive: 7.86%,–
Cc1cccc(C)c1N(CC(O)Cn1c2ccccc2c2ccccc21)S(C)(=O)=O (centres undefined),inactive: -13.1%,–
CCCCNC(=O)O[C@@H]1C[C@H]2CCCC(=O)N3CC[C@@H](C1)[C@@H]23,–,"inconclusive: 0.58 µM [inhibitor, full curve, poor fit]"
Cn1c(=O)[nH]c(=O)c2c1nc(N1CCCCCC1)n2CCCSc1nc2ccccc2o1,–,active: 23.1 µM
Cc1ccn2cc(-c3ccc(O)c(O)c3)nc2c1,–,"inconclusive: 4.61 µM [activator, full curve]"
Cc1ccc(N2C(=O)C3C(C2=O)C(C(=O)c2ccc(Cl)cc2)N2CCCC32)cc1 (centres undefined),–,"inconclusive: 16.4 µM [activator, partial curve, poor fit]"
O=C(Nc1nnc(SCC(=O)N2CCCCC2)s1)C1CCCCC1,–,"inconclusive: 16.4 µM [inhibitor, single point]"
COc1ccc(C(=O)Nc2ccc(C3=NNC(=O)CC3C)cc2NC(=O)c2ccc(OC)cc2)cc1 (centres undefined),–,active: 16.4 µM
Cc1ccc(-n2nc3c(=O)n(CC(=O)NCCc4ccco4)nc(C)c3c2C)cc1,inactive: -7.56%,–
O=C(CSc1nc(NS(=O)(=O)c2ccccc2)cc(=O)[nH]1)Nc1ccccc1Cl,–,"inconclusive: 20.6 µM [activator, single point]"

# 13 compounds already listed, sorted by number of heavy atoms, falling:
Structure (SMILES),"activity change, negative = inhibition",Potency
COc1ccc(C(CC(=O)N2CCCC(C)C2)c2c(OC)cc(OC)c3c(-c4ccccc4)cc(=O)oc23)cc1 (centres undefined),–,"inconclusive: 23.1 µM [inhibitor, partial curve]"
O=C(NC1CCCCC1)N(CCN1CCOCC1)Cc1cc2cc3c(cc2[nH]c1=O)OCCO3,–,"inconclusive: 14.6 µM [inhibitor, partial curve, poor fit]"
Cn1c(=O)[nH]c(=O)c2c1nc(N1CCCCCC1)n2CCCSc1nc2ccccc2o1,–,active: 23.1 µM
C=CCN(CC=C)C(=O)C1CCN(S(=O)(=O)c2ccc(N3CCCC3=O)cc2)CC1,inactive: -1.99%,–
O=C(CSc1nc(NS(=O)(=O)c2ccccc2)cc(=O)[nH]1)Nc1ccccc1Cl,–,"inconclusive: 20.6 µM [activator, single point]"
Cc1cc(C)cc(NC(=O)CN2CCc3cc4c(cc3C2C)OCCCO4)c1 (centres undefined),–,"inconclusive: 29.1 µM [inhibitor, single point]"
CCCCN(C)CCCNC(=O)CN1N=C(c2ccc(Cl)cc2)CCC1=O,–,"inconclusive: 11.6 µM [activator, partial curve, poor fit]"
O=C(Nc1nnc(SCC(=O)N2CCCCC2)s1)C1CCCCC1,–,"inconclusive: 16.4 µM [inhibitor, single point]"
Cc1ccc2nc(/C(C#N)=C/c3ccccc3C(=O)O)[nH]c2c1,inactive: -2.89%,–
CCCCNC(=O)O[C@@H]1C[C@H]2CCCC(=O)N3CC[C@@H](C1)[C@@H]23,–,"inconclusive: 0.58 µM [inhibitor, full curve, poor fit]"
O=C(Nc1nc2c(ccc3ccccc32)s1)c1ccco1,–,"inconclusive: 4.47 µM [activator, full curve, poor fit]"
Cc1ccn2cc(-c3ccc(O)c(O)c3)nc2c1,–,"inconclusive: 4.61 µM [activator, full curve]"
O=[N+]([O-])c1cccc(NC(=S)N2CCCC2)c1,inactive: 12.3%,–

# (more compounds)

Structure (SMILES),"activity change, negative = inhibition",Potency
COc1ccc(-c2ccc(SCC(=O)NC3CCCC3)nn2)cc1OC,–,"inconclusive: 13 µM [activator, partial curve]"
Cc1ccc(C)c(NC(=O)CCc2nnc3ccc(NCc4ccco4)nn23)c1,inactive: 11%,–
Cc1cc(C)cc(N(C(=O)CNC(=O)c2ccco2)C(C(=O)NC2CCCCC2)c2ccncc2)c1 (centres undefined),inactive: 2.25%,–
CC(Oc1cccc(Br)c1)C(=O)Nc1cccc(S(=O)(=O)N2CCOCC2)c1 (centres undefined),–,"inconclusive: 25.9 µM [inhibitor, single point]"
Cn1ccc(NC(=O)Nc2ccc(Cl)cc2Cl)n1,–,"inconclusive: 16.4 µM [activator, partial curve]"
Cc1nn(C)c(C(=O)N/N=C/c2cccc3ccccc23)c1Cl,–,"inconclusive: 16.4 µM [activator, single point]"
COC(=O)c1ccc(NC(=O)c2ccc3c(c2)NC(=O)C2CCCN32)cc1 (centres undefined),–,"inconclusive: 10.3 µM [inhibitor, partial curve, poor fit]"
CC#CCC(CC#CC)c1nc2ccccc2c(=O)n1N,–,"inconclusive: 29.1 µM [activator, single point]"
Cc1ccc(-c2ccc(/C=N/N3C(=O)C4C5C=CC(CC5)C4C3=O)o2)c([N+](=O)[O-])c1 (centres undefined),–,"inconclusive: 29.1 µM [inhibitor, single point]"
CCOc1cc(CNCCc2ccc(S(N)(=O)=O)cc2)ccc1OCc1ccc(Cl)cc1,–,"inconclusive: 18.4 µM [inhibitor, partial curve, poor fit]"
Cc1csc(=O)n1CC(=O)OC(C)C(=O)Nc1ccc(F)c(F)c1F (centres undefined),–,"inconclusive: 32.6 µM [activator, single point]"
C=CCn1c(SCC(=O)/C(C#N)=C(\C)N)nc2sc(C)c(C)c2c1=O,–,"inconclusive: 25.9 µM [inhibitor, single point]"
CC1(C)Cc2ccccc2-c2nnc(-c3ccccc3)n21,inactive: -7.09%,–
S=C(Nc1ccc(Nc2ccccc2)cc1)NN1CCOCC1,–,"inconclusive: 29.1 µM [inhibitor, single point]"
CCOC(=O)c1cn(-c2c(Cl)cccc2Cl)c2cc(Cl)c([N+](=O)[O-])cc2c1=O,–,"inconclusive: 25.9 µM [inhibitor, single point]"
CCN1CCC(=NNC(=O)c2ccco2)CC1,–,"inconclusive: 18.4 µM [activator, partial curve]"
COC(=O)c1ccc(-n2cnc3ccccc32)nc1,–,"inconclusive: 6.51 µM [activator, partial curve, poor fit]"
O=C(Nc1nncs1)C1COc2ccccc2O1 (centres undefined),–,"inconclusive: 29.1 µM [activator, single point]"
Cc1ccc(N(Cc2cc(=O)[nH]c3ccccc23)C(=O)CCl)c(C)c1,–,"inconclusive: 5.8 µM [inhibitor, partial curve]"
O=C(c1cc2c(s1)CCCC2)N1CCN(CCO)CC1,inactive: 3.39%,–
COc1ccc(-c2cc([C@H]3[C@H]4C=CC[C@@H](C)[C@@H]4C(=O)N3Cc3ccccc3)ccc2F)cc1,inactive: -6.96%,–
CCC(=O)C1CCCN(C(=O)c2ccc(OC)c(OC3CCN(C(C)=O)CC3)c2)C1 (centres undefined),inactive: 3.79%,–
Cc1ccc(S(=O)(=O)N2CCC(=O)N(C(COCc3cccc(C)c3)Cc3ccccc3)CC2)cc1 (centres undefined),–,"inconclusive: 18.4 µM [inhibitor, partial curve, poor fit]"
